The supplement of paper PMC12823440, “Inhibitors supercharge kinase turnover through native proteolytic circuits” (Nature, 2025)
The other results are listed elsewhere or left out. The calls rarely recur for the same compound in another form.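 Kinases, fused to nanoluciferase, were expressed in K562 cells; luminescence was measured every 4 h from 2 to 18 h as percent of control (DMSO = 100%, positive control = 0%). A time point is decreased if signal falls significantly (2 sigma). Hits were called by the authors by a rule that is not shown; the count of time points alone does not decide it.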

By UniProt entry, the sequences of proteins in these tests, tags left out. Where a name states a change or a piece, a line headed by the entry shows the natural chain unless it says otherwise.
UniProt O14965: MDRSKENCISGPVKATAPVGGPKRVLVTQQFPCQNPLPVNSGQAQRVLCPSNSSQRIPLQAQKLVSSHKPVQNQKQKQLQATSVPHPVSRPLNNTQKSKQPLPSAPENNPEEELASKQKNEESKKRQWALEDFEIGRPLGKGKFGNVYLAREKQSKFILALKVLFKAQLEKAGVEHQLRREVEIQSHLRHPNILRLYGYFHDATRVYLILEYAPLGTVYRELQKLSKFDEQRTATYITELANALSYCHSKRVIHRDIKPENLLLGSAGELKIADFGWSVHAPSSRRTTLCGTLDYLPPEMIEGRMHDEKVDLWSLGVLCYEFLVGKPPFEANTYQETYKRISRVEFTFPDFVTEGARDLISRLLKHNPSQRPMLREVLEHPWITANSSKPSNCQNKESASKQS
UniProt Q96GD4, whole entry: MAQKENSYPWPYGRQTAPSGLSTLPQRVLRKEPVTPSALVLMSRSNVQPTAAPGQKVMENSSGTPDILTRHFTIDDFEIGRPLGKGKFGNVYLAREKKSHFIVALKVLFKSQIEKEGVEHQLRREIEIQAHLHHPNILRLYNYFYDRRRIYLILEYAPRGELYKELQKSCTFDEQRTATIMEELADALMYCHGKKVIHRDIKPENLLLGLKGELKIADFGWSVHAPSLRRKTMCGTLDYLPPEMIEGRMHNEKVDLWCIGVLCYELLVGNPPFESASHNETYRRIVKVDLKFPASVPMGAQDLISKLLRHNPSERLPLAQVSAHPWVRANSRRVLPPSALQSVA
UniProt Q9UQB9: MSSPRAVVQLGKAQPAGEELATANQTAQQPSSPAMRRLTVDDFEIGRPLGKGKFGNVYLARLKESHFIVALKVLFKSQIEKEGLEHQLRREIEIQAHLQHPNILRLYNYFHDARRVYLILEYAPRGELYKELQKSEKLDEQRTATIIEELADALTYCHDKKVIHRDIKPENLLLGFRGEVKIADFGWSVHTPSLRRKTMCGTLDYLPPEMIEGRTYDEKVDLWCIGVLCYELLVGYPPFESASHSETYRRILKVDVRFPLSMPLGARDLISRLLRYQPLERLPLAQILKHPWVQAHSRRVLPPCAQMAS
UniProt P51813: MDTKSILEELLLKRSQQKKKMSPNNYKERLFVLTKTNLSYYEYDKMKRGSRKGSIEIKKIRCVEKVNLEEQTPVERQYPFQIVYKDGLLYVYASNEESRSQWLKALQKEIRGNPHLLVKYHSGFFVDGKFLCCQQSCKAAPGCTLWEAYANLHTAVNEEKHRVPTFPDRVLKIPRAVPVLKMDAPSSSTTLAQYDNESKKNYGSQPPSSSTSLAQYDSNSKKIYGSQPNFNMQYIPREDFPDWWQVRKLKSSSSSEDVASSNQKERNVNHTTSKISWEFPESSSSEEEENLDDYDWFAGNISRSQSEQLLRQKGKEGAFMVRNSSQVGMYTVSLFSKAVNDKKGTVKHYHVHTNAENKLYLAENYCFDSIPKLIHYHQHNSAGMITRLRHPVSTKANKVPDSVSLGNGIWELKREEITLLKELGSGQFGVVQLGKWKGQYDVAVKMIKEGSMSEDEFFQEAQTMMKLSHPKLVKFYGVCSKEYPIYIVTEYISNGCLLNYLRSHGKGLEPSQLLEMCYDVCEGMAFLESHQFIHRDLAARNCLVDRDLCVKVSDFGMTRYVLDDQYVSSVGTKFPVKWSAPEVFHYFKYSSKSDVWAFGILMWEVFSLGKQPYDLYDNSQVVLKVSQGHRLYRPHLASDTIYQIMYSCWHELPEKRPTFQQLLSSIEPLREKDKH
UniProt P15056, whole entry, looked up: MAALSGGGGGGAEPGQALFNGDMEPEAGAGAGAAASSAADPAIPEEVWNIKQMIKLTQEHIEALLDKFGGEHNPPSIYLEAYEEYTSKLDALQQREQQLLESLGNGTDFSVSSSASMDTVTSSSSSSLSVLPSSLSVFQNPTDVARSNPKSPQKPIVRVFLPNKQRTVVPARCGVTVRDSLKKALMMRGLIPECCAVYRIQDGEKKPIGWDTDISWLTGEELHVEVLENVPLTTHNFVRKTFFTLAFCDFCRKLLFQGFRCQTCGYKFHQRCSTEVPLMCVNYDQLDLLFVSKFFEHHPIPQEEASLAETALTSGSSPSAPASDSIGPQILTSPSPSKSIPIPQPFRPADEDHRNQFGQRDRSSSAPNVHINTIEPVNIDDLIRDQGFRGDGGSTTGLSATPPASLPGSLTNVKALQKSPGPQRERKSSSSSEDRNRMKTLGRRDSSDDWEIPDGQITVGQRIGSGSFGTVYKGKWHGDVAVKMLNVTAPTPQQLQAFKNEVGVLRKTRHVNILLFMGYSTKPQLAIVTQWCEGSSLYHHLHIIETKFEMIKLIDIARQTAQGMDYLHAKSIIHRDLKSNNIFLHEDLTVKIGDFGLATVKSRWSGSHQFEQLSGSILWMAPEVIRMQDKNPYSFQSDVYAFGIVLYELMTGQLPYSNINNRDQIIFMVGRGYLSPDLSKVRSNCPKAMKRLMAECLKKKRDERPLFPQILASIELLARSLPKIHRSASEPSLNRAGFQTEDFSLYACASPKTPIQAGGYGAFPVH
UniProt Q06187: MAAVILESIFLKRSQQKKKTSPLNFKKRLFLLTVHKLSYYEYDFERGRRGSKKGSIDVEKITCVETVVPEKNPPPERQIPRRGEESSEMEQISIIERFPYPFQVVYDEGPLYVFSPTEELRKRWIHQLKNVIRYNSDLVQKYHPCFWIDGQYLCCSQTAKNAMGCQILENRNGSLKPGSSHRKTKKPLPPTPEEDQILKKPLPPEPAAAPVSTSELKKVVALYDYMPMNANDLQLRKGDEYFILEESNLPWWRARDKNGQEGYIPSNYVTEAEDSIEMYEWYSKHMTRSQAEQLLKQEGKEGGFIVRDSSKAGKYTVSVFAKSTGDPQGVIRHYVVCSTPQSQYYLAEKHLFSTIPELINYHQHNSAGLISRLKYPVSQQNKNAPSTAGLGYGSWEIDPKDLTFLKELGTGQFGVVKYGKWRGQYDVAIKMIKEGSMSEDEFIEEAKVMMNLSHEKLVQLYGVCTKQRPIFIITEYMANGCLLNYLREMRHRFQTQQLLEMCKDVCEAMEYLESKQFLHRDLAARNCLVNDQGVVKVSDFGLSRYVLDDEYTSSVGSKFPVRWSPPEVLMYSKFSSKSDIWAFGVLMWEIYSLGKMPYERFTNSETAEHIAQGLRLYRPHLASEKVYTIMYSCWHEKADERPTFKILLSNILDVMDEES
UniProt Q9UQM7, whole entry: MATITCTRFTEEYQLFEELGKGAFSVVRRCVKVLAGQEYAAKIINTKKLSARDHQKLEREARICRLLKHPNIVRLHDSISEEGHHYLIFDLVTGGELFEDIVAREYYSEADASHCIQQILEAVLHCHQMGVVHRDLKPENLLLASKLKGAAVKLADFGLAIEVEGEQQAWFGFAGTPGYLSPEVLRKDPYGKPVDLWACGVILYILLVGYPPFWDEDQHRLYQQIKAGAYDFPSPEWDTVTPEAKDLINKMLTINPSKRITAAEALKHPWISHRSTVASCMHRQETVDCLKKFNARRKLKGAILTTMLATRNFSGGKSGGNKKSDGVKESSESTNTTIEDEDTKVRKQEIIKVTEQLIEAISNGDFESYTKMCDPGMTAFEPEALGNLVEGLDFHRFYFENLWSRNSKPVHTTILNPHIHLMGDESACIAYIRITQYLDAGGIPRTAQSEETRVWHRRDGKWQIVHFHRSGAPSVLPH
UniProt Q13555: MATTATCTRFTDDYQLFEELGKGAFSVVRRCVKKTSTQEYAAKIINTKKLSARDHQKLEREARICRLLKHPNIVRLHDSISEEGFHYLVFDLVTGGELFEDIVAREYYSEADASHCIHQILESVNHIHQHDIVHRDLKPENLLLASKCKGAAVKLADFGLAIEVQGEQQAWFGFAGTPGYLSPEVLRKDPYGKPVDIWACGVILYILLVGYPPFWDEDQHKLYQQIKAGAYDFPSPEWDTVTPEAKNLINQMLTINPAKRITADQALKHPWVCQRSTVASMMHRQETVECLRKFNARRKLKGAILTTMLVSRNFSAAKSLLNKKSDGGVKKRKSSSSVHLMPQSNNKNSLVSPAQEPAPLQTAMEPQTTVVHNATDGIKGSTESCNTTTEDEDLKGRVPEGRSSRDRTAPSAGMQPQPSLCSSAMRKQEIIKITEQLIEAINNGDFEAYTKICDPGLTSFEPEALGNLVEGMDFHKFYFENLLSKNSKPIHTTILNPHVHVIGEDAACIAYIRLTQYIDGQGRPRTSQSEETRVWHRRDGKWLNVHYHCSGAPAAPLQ
UniProt Q15131: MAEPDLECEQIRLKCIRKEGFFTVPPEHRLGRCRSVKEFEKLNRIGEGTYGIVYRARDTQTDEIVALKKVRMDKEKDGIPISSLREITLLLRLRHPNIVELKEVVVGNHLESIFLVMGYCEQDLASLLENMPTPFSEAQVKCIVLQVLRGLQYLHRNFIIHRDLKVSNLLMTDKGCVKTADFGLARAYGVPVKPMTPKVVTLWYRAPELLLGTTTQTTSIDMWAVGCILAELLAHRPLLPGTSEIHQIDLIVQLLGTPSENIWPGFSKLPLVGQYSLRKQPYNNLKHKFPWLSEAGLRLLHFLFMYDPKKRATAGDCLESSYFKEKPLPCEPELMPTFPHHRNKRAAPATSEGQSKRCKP
UniProt Q00535, whole entry, looked up: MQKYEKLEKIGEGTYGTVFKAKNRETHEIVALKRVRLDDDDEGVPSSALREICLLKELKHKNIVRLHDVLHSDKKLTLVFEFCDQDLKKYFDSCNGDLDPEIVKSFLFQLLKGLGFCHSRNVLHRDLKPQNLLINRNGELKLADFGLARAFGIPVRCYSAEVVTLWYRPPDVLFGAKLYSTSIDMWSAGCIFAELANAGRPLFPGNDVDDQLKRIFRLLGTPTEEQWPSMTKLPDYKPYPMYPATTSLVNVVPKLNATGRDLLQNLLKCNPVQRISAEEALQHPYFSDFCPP
UniProt Q00534, whole entry: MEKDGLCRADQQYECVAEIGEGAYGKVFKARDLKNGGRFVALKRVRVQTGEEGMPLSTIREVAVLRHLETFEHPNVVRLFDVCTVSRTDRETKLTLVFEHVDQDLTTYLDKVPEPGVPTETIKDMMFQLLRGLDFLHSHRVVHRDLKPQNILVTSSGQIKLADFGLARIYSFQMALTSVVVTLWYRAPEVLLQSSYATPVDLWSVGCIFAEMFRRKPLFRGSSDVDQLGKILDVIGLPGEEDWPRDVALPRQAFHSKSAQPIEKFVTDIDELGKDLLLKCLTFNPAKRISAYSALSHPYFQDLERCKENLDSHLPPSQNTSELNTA
UniProt P07333, whole entry: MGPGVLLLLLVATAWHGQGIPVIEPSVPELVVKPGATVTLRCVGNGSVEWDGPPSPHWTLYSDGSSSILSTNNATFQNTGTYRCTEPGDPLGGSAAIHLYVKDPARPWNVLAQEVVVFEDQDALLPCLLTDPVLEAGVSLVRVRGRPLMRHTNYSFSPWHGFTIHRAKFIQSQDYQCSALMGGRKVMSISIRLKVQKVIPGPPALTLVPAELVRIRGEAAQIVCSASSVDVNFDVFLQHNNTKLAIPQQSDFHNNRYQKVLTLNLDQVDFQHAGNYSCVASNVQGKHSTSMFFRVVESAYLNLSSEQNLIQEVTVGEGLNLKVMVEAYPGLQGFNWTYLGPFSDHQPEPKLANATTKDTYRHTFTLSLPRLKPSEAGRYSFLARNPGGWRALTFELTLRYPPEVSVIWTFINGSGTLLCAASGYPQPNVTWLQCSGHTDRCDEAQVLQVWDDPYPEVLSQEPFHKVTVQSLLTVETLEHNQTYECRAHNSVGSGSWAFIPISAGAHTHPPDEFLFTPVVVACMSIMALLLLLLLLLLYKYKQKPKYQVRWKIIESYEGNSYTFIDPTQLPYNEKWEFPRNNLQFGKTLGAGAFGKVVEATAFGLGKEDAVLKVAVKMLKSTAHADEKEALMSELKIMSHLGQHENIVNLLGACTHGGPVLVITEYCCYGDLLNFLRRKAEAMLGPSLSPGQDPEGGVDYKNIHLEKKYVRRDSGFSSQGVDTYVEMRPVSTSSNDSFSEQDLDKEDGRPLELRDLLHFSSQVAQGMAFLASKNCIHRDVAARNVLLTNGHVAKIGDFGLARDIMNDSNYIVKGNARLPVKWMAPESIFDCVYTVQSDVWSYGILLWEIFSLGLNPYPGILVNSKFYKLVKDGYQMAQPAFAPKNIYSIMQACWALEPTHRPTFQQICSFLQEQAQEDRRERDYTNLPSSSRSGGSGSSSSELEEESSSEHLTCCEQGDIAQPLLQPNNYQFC
UniProt P41240: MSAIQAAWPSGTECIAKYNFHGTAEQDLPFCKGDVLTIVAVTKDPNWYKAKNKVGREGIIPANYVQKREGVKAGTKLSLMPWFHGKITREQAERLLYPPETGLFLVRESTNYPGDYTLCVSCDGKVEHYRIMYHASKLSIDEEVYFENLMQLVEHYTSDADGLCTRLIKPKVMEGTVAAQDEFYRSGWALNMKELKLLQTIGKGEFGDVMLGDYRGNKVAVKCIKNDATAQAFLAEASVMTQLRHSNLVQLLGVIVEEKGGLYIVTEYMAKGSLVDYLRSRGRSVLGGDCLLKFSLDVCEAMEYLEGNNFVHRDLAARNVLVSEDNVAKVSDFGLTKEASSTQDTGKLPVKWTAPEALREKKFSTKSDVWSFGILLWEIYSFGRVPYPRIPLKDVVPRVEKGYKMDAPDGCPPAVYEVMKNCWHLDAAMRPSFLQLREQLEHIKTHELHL

How the values were obtained:
Test in all cases: number of time points (of 5) at which kinase-Nluc abundance scored as decreased, DMSO-normalised (count); higher = more persistent destabilization
Details in all cases: K562; 2-18 h
ALK = ALK (UniProt Q9UM73)
ARAF = ARAF (UniProt P10398)
AURKA = AURKA (UniProt O14965)
AURKB = AURKB (UniProt Q96GD4)
AURKC = AURKC (UniProt Q9UQB9)
BLK = BLK (UniProt P51451)
BMX = BMX (UniProt P51813)
BRAF = BRAF (UniProt P15056)
BRAF_V600E = tested on: BRAF_V600E
BTK = BTK (UniProt Q06187)
CAMK2A = CAMK2A (UniProt Q9UQM7)
CAMK2G = CAMK2G (UniProt Q13555)
CDK10 = CDK10 (UniProt Q15131)
CDK2 = CDK2 (UniProt P24941)
CDK3 = CDK3 (UniProt Q00526)
CDK5 = CDK5 (UniProt Q00535)
CDK6 = CDK6 (UniProt Q00534)
CHEK2 = CHEK2 (UniProt O96017)
CSF1R = CSF1R (UniProt P07333)
CSK = CSK (UniProt P41240)

Structure (SMILES)	number of time points (ALK)	number of time points (ARAF)	number of time points (AURKA)	number of time points (AURKB)	number of time points (AURKC)	number of time points (BLK)	number of time points (BMX)	number of time points (BRAF)	number of time points (BRAF_V600E)	number of time points (BTK)	number of time points (CAMK2A)	number of time points (CAMK2G)	number of time points (CDK10)	number of time points (CDK2)	number of time points (CDK3)	number of time points (CDK5)	number of time points (CDK6)	number of time points (CHEK2)	number of time points (CSF1R)	number of time points (CSK)
Cc1ccc2nc(NC(=O)CSc3nc4c(c(=O)n3-c3ccccc3)SCC4)sc2c1 (2 µM)	0	0	0	0	0	0	0	0	0	0	0	0	0	0	0	0	0	0	0	0
CC(C)=CC(=O)CCC(=O)N1CCN(Cc2cc3nc(-c4cccc5[nH]ncc45)nc(N4CCOCC4)c3s2)CC1 (10 µM)	0	0	0	0	0	0	4	5	0	0	0	0	0	0	0	0	5	0	0	0
CC(c1ccc(-c2cnc3c(-c4ccc(S(N)(=O)=O)c5ccccc45)cnn3c2)cc1)N1CCCC1 (stereo not given) (2.5 µM)	0	0	0	0	0	0	0	0	0	0	0	0	0	0	0	0	0	0	0	0
CC(C)(NS(=O)(=O)c1ccc2c(Cl)cnc(N=C(N)N)c2c1)C(=O)O (10 µM)	0	0	0	0	0	0	0	0	0	0	0	0	0	0	0	0	0	0	0	0
C=C(C)C(=O)Nc1cccc(-c2ncnc3[nH]cc(C(=O)OCC)c23)c1 (10 µM)	0	0	0	0	0	0	0	0	0	0	0	0	0	0	0	0	0	0	0	0
O=C(Nc1cccnc1)c1cc(C(=O)c2c(F)cccc2Br)c[nH]1 (10 µM)	0	0	0	0	0	0	0	0	0	0	0	0	0	0	0	0	0	0	0	0
CCOc1ccc(C(=O)Nc2ncc([N+](=O)[O-])s2)cc1 (10 µM)	0	0	0	0	0	0	3	0	0	0	0	0	0	0	0	0	0	0	0	0
CN(CC(=O)N(Cc1ccc(C2CCCCC2)cc1)c1ccc(C(=O)O)cc1)S(=O)(=O)c1c(F)c(F)c(F)c(F)c1F (2.5 µM)	0	0	0	0	0	0	0	0	0	0	0	0	0	0	0	0	0	0	0	0
C=CC(=O)Nc1cc2c(Nc3ccc(OCc4ccccn4)c(Cl)c3)ncnc2cc1OCCN1CCOCC1 (10 µM)	0	0	0	0	0	0	2	0	0	0	0	0	0	0	0	0	0	0	0	0
CC(=O)N1CCN(c2cc(-c3cc(C(F)(F)F)c4c(N)ncnn34)ccc2C#N)C(=O)C1(C)C (10 µM)	0	0	0	0	0	0	0	0	0	0	0	0	0	0	0	0	0	0	0	0
O=c1oc2cc(O)ccc2c2ccccc12 [Urolithin B] (10 µM)	0	0	0	0	0	0	0	0	0	0	0	0	0	0	0	0	0	0	0	0
OCCNC1CCCc2c1[nH]c1ccc(-c3ccccc3)cc21 (stereo not given) (2.5 µM)	0	0	3	0	0	0	1	0	2	0	0	0	0	0	0	0	0	0	0	0
